Laboratory results from PubChem BioAssay AID540276 (National Center for Advancing Translational Sciences (NCATS), 2011).
“And” between values parts separate entries of the source, which are not always exact repeats. Identical values can stand only once. In all, about 300,000 compounds went through this assay and about 5,400 (1.8%) were called active. Inconclusive results, whose numbers are uncertain, are shown with a selection of clear calls. Calls come from the whole dose curve; tested in HEK293 cells. Potencies beside an inconclusive call are fits to weak or partial responses and may not hold up.

Assay: qHTS for inhibitors of binding or entry into cells for Marburg Virus
Conditions: Marburg virus pseudotyped entry inhibition, cell reporter; activity change, negative = inhibition: at 37.8 µM (top of the series) unless noted
% is set by controls: 0 for no effect and ±100 for the full control effect; potency is the fitted concentration of half-maximal effect.

| Structure (SMILES) | Potency | activity change, negative = inhibition |
| --- | --- | --- |
| CC(Sc1nc(NCc2ccccc2)nc(N2CCOCC2)n1)C(=O)Nc1ccccc1 (stereo not given) | inconclusive: 17.8 µM [activator, single point] |  |
| O=C(OCC(=O)N1CCN(Cc2ccccc2)CC1)c1cc(Cl)ccc1[N+](=O)[O-] |  | inactive: 1.21% |
| Cc1c(NC(=O)c2cc(-c3ccc(Cl)cc3)on2)c(=O)n(-c2ccccc2)n1C | inactive |  |
| CN(c1ccc(C(=O)Nc2ccccn2)cc1)S(=O)(=O)c1ccccc1 |  | inactive: 16.6% |
| Cc1cc(C(F)(F)F)nc(-n2cc(-c3cccc(N)c3)nn2)n1 | inconclusive: 35.5 µM [inhibitor, single point] |  |
| O=C(Nc1ccc(S(=O)(=O)NCc2ccccc2)cc1)c1ccc(Br)o1 | inconclusive: 22.4 µM [inhibitor, partial curve, poor fit] |  |
| COc1cc(/C=N/NC(=O)c2ccncc2)cc(OC)c1OC |  | inactive: -6.79% |
| CCOc1ccc(C(C)=O)cc1CSc1nnnn1-c1ccc(O)cc1 |  | inactive: -2.02% |
| CN1C(=S)NC(C)(C)CC1(C)c1ccc(O)cc1O (stereo not given) |  | inactive: 5.18% |
| C/C(=N\Nc1ccc(Cl)c(C(=O)O)c1)c1ccc(Br)s1 | inconclusive: 35.5 µM [activator, single point] |  |
| NS(=O)(=O)c1cccc(NC(=O)c2ccc(S(=O)(=O)N3CCCCCC3)cc2)c1 |  | inactive: -5.34% |
| Cn1c(=O)c2c(nc(N/N=C/c3ccc(OC(=O)c4ccco4)cc3)n2Cc2ccccc2)n(C)c1=O | inconclusive: 35.5 µM [inhibitor, single point] |  |
| Cc1nc(N2CCN(C)CC2)c2c(C)c(C(=O)Nc3ccc(F)cc3)sc2n1 | inconclusive: 35.5 µM [inhibitor, single point] |  |
| CCc1ccc(C(C(=O)NCc2ccccc2)N(C(=O)c2csnn2)C2CC2)cc1 (stereo not given) |  | inactive: -29.8% [at 46.1 µM] |
| COc1cccc(/C=N/NC(=O)c2nnn(-c3nonc3N)c2C(C)C)c1OCc1ccc(F)cc1 | inconclusive: 3.98 µM [inhibitor, partial curve, poor fit] |  |
| CC(C)(C)NC(=O)NC(=O)COC(=O)c1cccc(NS(=O)(=O)c2ccc(F)c(F)c2)c1 | inconclusive: 3.98 µM [inhibitor, partial curve, poor fit] |  |
| O=C(N/N=C\c1ccc([N+](=O)[O-])s1)c1cncc(Br)c1 | active: 2.59 µM |  |

| Structure (SMILES) | Potency | activity change, negative = inhibition |
| --- | --- | --- |
| O=C(COc1ccccc1O)Nc1ccccc1Cl |  | inactive: -18.9% [at 46.1 µM] |
| CN(C)c1ccc(NC(=O)COC(=O)CCC(=O)c2ccc(F)cc2)cc1 |  | inactive: -2.74% |
| Cc1nn2c(nc(N3CCOCC3)c3ccccc32)c1C=C(C#N)C#N |  | inactive: 21.8% |
| CCCn1c(=O)n(C)c(=O)c2c(SC(C)C(=O)NCC3CCCO3)nc(CC(C)C)nc21 (stereo not given) | inconclusive: 2 µM [inhibitor, full curve, poor fit] |  |
| Cc1ccc(NC(=O)c2ccc(NC(=O)c3ccccc3)cc2)cc1C | inconclusive: 35.5 µM [inhibitor, single point] |  |
| CCC(/C=N/Nc1ccc(S(=O)(=O)N2CCCC2)cc1[N+](=O)[O-])CC | inconclusive: 3.98 µM [inhibitor, single point] |  |
| COc1ccc(C)cc1N/C(N)=N/c1nc(C)cc(C)n1 | inconclusive: 20 µM [inhibitor, single point] |  |
| Cn1c(CN2CCCC2)nc2cc(NC(=O)C3CCCCC3)ccc21 |  | inactive: -4.85% |
| COc1ccc2c(c1OC)C(=O)OC2Nc1ncccc1C (stereo not given) | inconclusive: 35.5 µM [inhibitor, partial curve, poor fit] |  |
| Cc1ccc(P(=O)(CSC(=N)N)c2ccc(C)cc2)cc1 | inconclusive: 3.66 µM [inhibitor, partial curve, poor fit] |  |
| Cc1ccc(NC(=O)c2ccccc2NC(=O)CCC(=O)O)cc1 | inconclusive: 10.3 µM [activator, single point] |  |
| Cc1ccc(NC(=O)COc2coc(CN3CCc4ccccc43)cc2=O)c(C)c1 |  | inactive: -14.6% |
| COc1ccc(Cl)cc1S(=O)(=O)N1CCC(C(=O)NCC2CCCO2)CC1 (stereo not given) | inconclusive: 20 µM [activator, partial curve, poor fit] |  |
| CCOC(=O)/C(=C\C=C1/Sc2cc(OCC)c(OCC)cc2N1CC)C(C)=O | inconclusive: 35.5 µM [inhibitor, partial curve, poor fit] |  |
| Cc1cccc(NC(=S)NC2CC3CCCC(C2)N3Cc2ccccc2)c1C (stereo not given) | inconclusive: 9.2 µM [inhibitor, partial curve, poor fit] |  |
| CC(=O)Nc1ccc(CN2CCc3c([nH]c4ccccc34)C2c2ccccn2)cc1 (stereo not given) | inconclusive: 35.5 µM [inhibitor, partial curve, poor fit] |  |
| Cc1cc(C)c(S(=O)(=O)Nc2ccccc2C(=O)N2CCCC2)c(C)c1 | inconclusive: 12.6 µM [inhibitor, single point] |  |
